Measurements reported in PubChem BioAssay AID1224830 (NIAID, 2016).
Aim: 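Regulators of TLR4 signalling towards TNF-alpha in macrophage-like cells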 (primary screen). Cell system: human THP-1 monocytic leukaemia cells, TNF dual-luciferase reporter clone, PMA-differentiated to macrophage-like cells. Knock-down reagent: siRNA pool against human genes, 50 nM. Timing: LPS for 4 h, given about 3 days after siRNA transfection. Challenge: bacterial LPS (TLR4 ligand), 10 ng/ml. Measurement: 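TNF firefly reporter luminescence divided by renilla, normalised to the plate median, then turned into a robust z-score for each replicate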. Direction: TNF reporter robust z-score: higher = stronger TNF reporter response to LPS. Call rule: 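Each well counts as active if its z-score is over 2.8 or under -1.5; controls are left without a call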.
This is an unselected part of about 18,000 reagents. About 2,900 of all reagents (16%) count as active. 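Calls are made per well; low scores hint the gene aids the LPS response, high scores that it dampens it.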 Repeated entries: four replicate wells of each siRNA pool.

The first 12 records, to show the layout:
target gene	TNF reporter robust z-score	Outcome
GP2 (GeneID 2813)	0.56	inactive
GP2 (GeneID 2813)	0.65	inactive
GP2 (GeneID 2813)	0.19	inactive
GP2 (GeneID 2813)	0.21	inactive
MYO5A (GeneID 4644)	-0.18	inactive
MYO5A (GeneID 4644)	1.79	inactive
MYO5A (GeneID 4644)	1.19	inactive
MYO5A (GeneID 4644)	1.01	inactive
NDUFB6 (GeneID 4712)		inactive
NDUFB6 (GeneID 4712)	-1.07	inactive
NDUFB6 (GeneID 4712)	-1.01	inactive
NDUFB6 (GeneID 4712)	-0.93	inactive

Main list, from the start:
target gene	TNF reporter robust z-score	Outcome
GP2 (GeneID 2813)	0.56	inactive
GP2 (GeneID 2813)	0.65	inactive
GP2 (GeneID 2813)	0.19	inactive
GP2 (GeneID 2813)	0.21	inactive
MYO5A (GeneID 4644)	-0.18	inactive
MYO5A (GeneID 4644)	1.79	inactive
MYO5A (GeneID 4644)	1.19	inactive
MYO5A (GeneID 4644)	1.01	inactive
NDUFB6 (GeneID 4712)		inactive
NDUFB6 (GeneID 4712)	-1.07	inactive
NDUFB6 (GeneID 4712)	-1.01	inactive
NDUFB6 (GeneID 4712)	-0.93	inactive
NDUFB6 (GeneID 4712)	-1.29	inactive
LPO (GeneID 4025)	0.9	inactive
LPO (GeneID 4025)	0.52	inactive
LPO (GeneID 4025)	0.83	inactive
LPO (GeneID 4025)	-0.18	inactive
FIG4 (GeneID 9896)	0.37	inactive
FIG4 (GeneID 9896)	0.48	inactive
FIG4 (GeneID 9896)	-0.51	inactive
FIG4 (GeneID 9896)	0.65	inactive
CD81 (GeneID 975)	1.83	inactive
CD81 (GeneID 975)	3.7	active
CD81 (GeneID 975)	1.5	inactive
CD81 (GeneID 975)	3.91	active
FAM219B (GeneID 57184)	-0.85	inactive
FAM219B (GeneID 57184)	-0.09	inactive
FAM219B (GeneID 57184)	-1.16	inactive
FAM219B (GeneID 57184)	0.75	inactive
CEP128 (GeneID 145508)	1.32	inactive
CEP128 (GeneID 145508)	-0.01	inactive
CEP128 (GeneID 145508)	-1.21	inactive
CEP128 (GeneID 145508)	0.69	inactive
ZNF189 (GeneID 7743)	-0.71	inactive
ZNF189 (GeneID 7743)	1.49	inactive
ZNF189 (GeneID 7743)	-0.69	inactive
ZNF189 (GeneID 7743)	0.32	inactive
WDR91 (GeneID 29062)	-1.64	active
WDR91 (GeneID 29062)	-1.15	inactive
WDR91 (GeneID 29062)	-1.18	inactive
WDR91 (GeneID 29062)	-1.28	inactive
GPR143 (GeneID 4935)	-0.39	inactive
GPR143 (GeneID 4935)	-0.26	inactive
GPR143 (GeneID 4935)	0.9	inactive
GPR143 (GeneID 4935)	0.1	inactive
CBFB (GeneID 865)	-0.83	inactive
CBFB (GeneID 865)	0.86	inactive
CBFB (GeneID 865)	-0.24	inactive
CBFB (GeneID 865)	0.26	inactive
IRAK4 (GeneID 51135)	0.14	inactive
IRAK4 (GeneID 51135)	-0.61	inactive
IRAK4 (GeneID 51135)	0.08	inactive
IRAK4 (GeneID 51135)	1.05	inactive
UBXN2B (GeneID 137886)	0.2	inactive
UBXN2B (GeneID 137886)	-0.87	inactive
UBXN2B (GeneID 137886)	-0.95	inactive
UBXN2B (GeneID 137886)	-0.79	inactive
PEX7 (GeneID 5191)	1.15	inactive
PEX7 (GeneID 5191)	2.35	inactive
PEX7 (GeneID 5191)	0.56	inactive
PEX7 (GeneID 5191)	2.33	inactive
PCDHGA10 (GeneID 56106)	-0.76	inactive
PCDHGA10 (GeneID 56106)	-0.74	inactive
PCDHGA10 (GeneID 56106)	-0.24	inactive
POMT1 (GeneID 10585)	1.13	inactive
POMT1 (GeneID 10585)	2.39	inactive
POMT1 (GeneID 10585)	0.91	inactive
POMT1 (GeneID 10585)	0.7	inactive
MTIF3 (GeneID 219402)	0.49	inactive
MTIF3 (GeneID 219402)	0.9	inactive
MTIF3 (GeneID 219402)	-0.35	inactive
MTIF3 (GeneID 219402)	-1.55	active
ARF6 (GeneID 382)	-0.47	inactive
ARF6 (GeneID 382)	-0.29	inactive
ARF6 (GeneID 382)	-0.31	inactive
ARF6 (GeneID 382)	-0.22	inactive
SNRK (GeneID 54861)	0.34	inactive
SNRK (GeneID 54861)	0.15	inactive
SNRK (GeneID 54861)	0.18	inactive
SNRK (GeneID 54861)	2.03	inactive
NLRP12 (GeneID 91662)	-1.32	inactive
NLRP12 (GeneID 91662)	-1.15	inactive
NLRP12 (GeneID 91662)	-1.01	inactive
NLRP12 (GeneID 91662)	1.21	inactive
CIPC (GeneID 85457)	-0.21	inactive
CIPC (GeneID 85457)	0.11	inactive
CIPC (GeneID 85457)	0.02	inactive
CIPC (GeneID 85457)	0.24	inactive
OAS2 (GeneID 4939)	1.68	inactive
OAS2 (GeneID 4939)	2.69	inactive
OAS2 (GeneID 4939)	5.38	active
OAS2 (GeneID 4939)	0.39	inactive
KRTAP12-4 (GeneID 386684)	-1.36	inactive
KRTAP12-4 (GeneID 386684)	-1.58	active
KRTAP12-4 (GeneID 386684)	-1.56	active
KRTAP12-4 (GeneID 386684)	-1.85	active
AMY2A (GeneID 279)	-0.04	inactive
AMY2A (GeneID 279)	0.01	inactive
AMY2A (GeneID 279)	0.12	inactive
AMY2A (GeneID 279)	-0.34	inactive
THBD (GeneID 7056)	0	inactive
THBD (GeneID 7056)	0.87	inactive
THBD (GeneID 7056)	1.09	inactive
THBD (GeneID 7056)	1.14	inactive
STARD10 (GeneID 10809)	-1.03	inactive
STARD10 (GeneID 10809)	-0.19	inactive
STARD10 (GeneID 10809)	-0.84	inactive
STARD10 (GeneID 10809)	-0.99	inactive
CYB5A (GeneID 1528)	1.98	inactive
CYB5A (GeneID 1528)	3.05	active
CYB5A (GeneID 1528)	2.35	inactive
CYB5A (GeneID 1528)	3.83	active
FEV (GeneID 54738)	-0.24	inactive
FEV (GeneID 54738)	-0.21	inactive
FEV (GeneID 54738)	-0.46	inactive
FEV (GeneID 54738)	-0.6	inactive
PPP2CB (GeneID 5516)	-1.22	inactive
PPP2CB (GeneID 5516)	-1.41	inactive
PPP2CB (GeneID 5516)	-1.42	inactive
PPP2CB (GeneID 5516)	-0.49	inactive
GOSR2 (GeneID 9570)	-1.24	inactive
GOSR2 (GeneID 9570)	-0.69	inactive
GOSR2 (GeneID 9570)	-0.99	inactive
GOSR2 (GeneID 9570)	-0.63	inactive
ZFAND5 (GeneID 7763)	-1.28	inactive
ZFAND5 (GeneID 7763)	-0.89	inactive
ZFAND5 (GeneID 7763)	-0.73	inactive
ZFAND5 (GeneID 7763)	-0.82	inactive
SLC7A6 (GeneID 9057)	0.3	inactive
SLC7A6 (GeneID 9057)	0.54	inactive
SLC7A6 (GeneID 9057)	1.21	inactive
SLC7A6 (GeneID 9057)	3.63	active
CYP1A1 (GeneID 1543)	2.04	inactive
CYP1A1 (GeneID 1543)	2.66	inactive
CYP1A1 (GeneID 1543)	2.32	inactive
CYP1A1 (GeneID 1543)	3.49	active
KRTAP6-1 (GeneID 337966)	-0.82	inactive
KRTAP6-1 (GeneID 337966)	0.13	inactive
KRTAP6-1 (GeneID 337966)	-0.21	inactive
KRTAP6-1 (GeneID 337966)	-0.08	inactive
